In PMC11087398, “Evaluation of 1,10-phenanthroline-based hydroxamate derivative as dual histone deacetylases/ribonucleotide reductase inhibitor with antitumor activities” (DARU Journal of Pharmaceutical Sciences, 2024):

What was measured:
Assay in all cases: MTT cell viability assay
Assay type in all cases: cell-based
SiHa = settings: Homo sapiens, 48 h, mean ± SD, read-out: Antiproliferative activity IC50, SiHa
Experimental: (§1) Human cancer cells (SiHa, HepG2, MCF7, Cal27) were obtained from ATCC, while foreskin fibroblast cells were generated at the Manipal School of Life Sciences. Cells were cultured in DMEM with 10% FBS, maintained in an Eppendorf CellXpert® C170 incubator at 37 °C with 5% CO2, and medium was renewed every 48–72 h.
(§2) Cancer cells (1 × 10^5 cells/mL) and fibroblast cells (5 × 10^4 cells/mL) were seeded in 96-well plates. Test compounds, dissolved in DMSO and diluted in DMEM with 10% FBS, were treated for 48 h. MTT (5 mg/mL) was added, and after 4 h, absorbance was measured at 570 and 630 nm using a VARIOSKAN™ 3001 multimode multiplate reader.

[1] = system: foreskin fibroblast cells; settings: 48 h, normal human fibroblast cells, mean ± SD, read-out: Antiproliferative activity IC50, Fibroblast
Experimental: as §1, §2

MCF7 = settings: Homo sapiens, 48 h, mean ± SD, read-out: Antiproliferative activity IC50, MCF7
Experimental: as §1, §2

Cal27 = settings: Homo sapiens, CAL-27, 48 h, mean ± SD, read-out: Antiproliferative activity IC50, Cal27
Experimental: as §1, §2

HepG2 = settings: Homo sapiens, 48 h, mean ± SD, read-out: Antiproliferative activity IC50, HepG2
Experimental: as §1, §2

O=C(CCCCCCC(=O)Nc1ccccc1)NO [SAHA, suberoylanilide hydroxamic acid]
IC50 (SiHa): 25.2 ± 3.69 µM | IC50 [1]: > 100 µM | IC50 (MCF7): > 100 µM | IC50 (Cal27): 9.42 ± 4.14 µM | IC50 (HepG2): 61.9 ± 1.47 µM
